Screen size: about 320,000 compounds; about 22,000 (6.9%) were called active. Inconclusive means that the source gave no clear call. Such entries were picked first, then a sample of the others. Calls come from the whole dose curve; as a rule, active = well fitted inhibition curve with a large enough effect; inconclusive = small, poorly fitted or top-dose-only effect, or another doubt; inactive = no such curve, though single readings can be large or run the other way. Where the call is inconclusive, the potency comes from a doubtful curve fit.
Experiment: Primary qHTS for delayed death inhibitors of the malarial parasite plastid, 96 hour incubation
Details: P. falciparum luciferase reporter growth; series mostly up to 28.7 µM; activity change, negative = inhibition: at the top concentration
Method in brief: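 Two parasite generations (96 h, 37 C, 5% CO2) of compound exposure in infected erythrocytes (0.05% parasitemia, 2% hematocrit). Luciferase-reporter P. falciparum; decreased luminescence indicates inhibited growth, aimed at apicoplast-acting delayed death.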
% is set by controls: 0 for no effect and ±100 for the full control effect; potency is the fitted concentration of half-maximal effect.

Compound | Potency | activity change, negative = inhibition
Cc1c(Br)c([N+](=O)[O-])nn1CC(=O)Nc1c(C)n(C)n(-c2ccccc2)c1=O | active: 2.94 µM | –
Oc1ccc(Cl)cc1CNc1nccs1 | inconclusive: 0.0037 µM [inhibitor, full curve, poor fit] | –
COCCn1c(COc2ccccc2)nnc1SCC(N)=O | inconclusive: 14.7 µM [inhibitor, partial curve, poor fit] | –
CC(=O)N1CC2(C)CN(C(C)=O)CC(C)(C1)C2=O | inconclusive: 18.5 µM [inhibitor, single point] | –
NC(=O)NOCc1ccccc1F | inconclusive: 20.8 µM [inhibitor, single point] | –
Cc1c(Cl)c([N+](=O)[O-])nn1CCCC(=O)NCCc1ccccc1 | active: 7.38 µM | –
O=C(Nc1ccc(Cl)cc1Cl)NC1CCCC1 | inconclusive: 10.4 µM [inhibitor, partial curve] | –
CC(C)CCNC(=O)CSc1nnc(-c2ccc(S(=O)(=O)N3CCCC3)cc2)n1C | inconclusive: 11.7 µM [inhibitor, single point] | –
O=C(CSc1nc(-c2ccc(F)cc2)cc(C(F)(F)F)n1)NCc1cccs1 | active: 3.29 µM | –
CCCc1cc(=O)oc2cc(C)cc(OC(C)C(=O)NCc3ccccn3)c12 (centres undefined) | active: 2.33 µM | –
Cc1ccc(-c2csc3ncnc(-n4nnc5ccccc54)c23)cc1 | inconclusive: 18.5 µM [inhibitor, single point] | –
Cc1cc(C)nc(Oc2ccc(Br)cc2)n1 | – | inactive: 27.8%
FC(F)(F)c1ccc(-n2cnc3ccccc32)nc1 | – | inactive: -24.4%
O=C(COc1cccnc1[N+](=O)[O-])N1CCc2ccccc21 | – | inactive: 3.61%
O=C(Cc1ccccc1)NC(Oc1ccccc1Cl)C(Cl)(Cl)Cl (centres undefined) | inconclusive: 8.28 µM [inhibitor, partial curve, poor fit] | –
COc1cccc([C@@H]2Oc3ccc(OC)cc3C(=O)[C@H]2O)c1 | active: 3.7 µM | –
CCOC(=O)c1ccc(NC(=O)CCC(=O)OC)cc1 | inconclusive: 18.5 µM [inhibitor, single point] | –
COc1ccc(C(=O)CC(c2ccccc2)C2C(=O)CCCC2=O)cc1 (centres undefined) | inconclusive: 9.28 µM [inhibitor, single point] | –
Cc1nnc(SCC(=O)NCc2ccccc2)s1 | inconclusive: 9.28 µM [inhibitor, single point] | –
CCOc1ccc(N(CC(=O)NCCOc2ccccc2OC)S(=O)(=O)c2ccccc2)cc1 | – | inactive: 0.187%
CCCc1cc(=O)oc2c(C)c(OCC(=O)NC3CC(C)(C)NC(C)(C)C3)ccc12 | inconclusive: 18.5 µM [inhibitor, single point] | –
O=S(=O)(c1ccc(SCCOc2ccccc2Cl)nc1)N1CCCC1 | inconclusive: 9.28 µM [inhibitor, partial curve, poor fit] | –
CCCn1c(N)c(C(=O)CSc2nncs2)c(=O)[nH]c1=O | inconclusive: 10.4 µM [inhibitor, partial curve, poor fit] | –

Compound | Potency | activity change, negative = inhibition
COc1cc(NC(=O)CCS(=O)(=O)c2ccc3c(c2)n(C)c(=O)c(=O)n3C)cc(OC)c1 | inconclusive: 0.0033 µM [inhibitor, full curve, poor fit] | –
Cc1ccc2nc(CSc3nnc(Nc4ccccc4C)s3)cc(=O)n2c1 | inconclusive: 9.28 µM [inhibitor, partial curve, poor fit] | –
O=C(NC1CCN(Cc2ccccc2)C1)c1cc(COc2ccc(F)cc2F)on1 (centres undefined) | inconclusive: 18.5 µM [inhibitor, single point] | –
COc1cccc(OCC(=O)NC2CCS(=O)(=O)C2)c1 (centres undefined) | – | inactive: 75.6%
Cc1ccccc1OCCn1cc(/C(N)=N/O)c2ccccc21 | active: 9.28 µM | –
CS(=O)(=O)c1ccc(Cl)c(NC(=O)CCc2ccccc2)c1 | – | inactive: 78.5%
COCCC(=O)N1CCC(Oc2ccc(C(=O)NCc3ccon3)cc2)CC1 | inconclusive: 18.5 µM [inhibitor, single point] | –
CC1(C(=O)NNC(=O)C2CCCCC2)CC1(Cl)Cl (centres undefined) | – | inactive: 11.3%
Clc1ccccc1CNCC1CCCO1 (centres undefined) | inconclusive: 18.5 µM [inhibitor, single point] | –
O=C(Nc1ccccc1C(F)(F)F)c1cc(-c2cccc(O)c2)on1 | active: 10.4 µM | –
N#CCCN(Cc1ccncc1)C(=S)NC1CC2C=CC1C2 (centres undefined) | inconclusive: 4.15 µM [inhibitor, full curve, poor fit] | –
O=S(=O)(Nc1cccc(-c2ccc3nncn3n2)c1)c1ccccc1F | inconclusive: 18.5 µM [inhibitor, single point] | –
c1ccc(NC(=NCc2ccco2)c2ccccc2)cc1 | inconclusive: 4.65 µM [inhibitor, partial curve, poor fit] | –
CCc1[nH]nc(C(=O)NC2CCCc3c2cnn3-c2cc(C)cc(C)c2)c1C (centres undefined) | inconclusive: 2.94 µM [inhibitor, full curve] | –
CC1CCN(c2nc3c(c(=O)[nH]c(=O)n3C)n2CCCc2ccccc2)CC1 | active: 10.4 µM | –
O=C(NCC1(c2ccccc2)CCCC1)C(=O)N1CCOCC1 | inconclusive: 14.7 µM [inhibitor, single point] | –
Cc1ccc(C(=O)N2CCN(c3ccc(NC(=S)NC(=O)Cc4ccccc4)cc3)CC2)cc1 | inconclusive: 9.28 µM [inhibitor, partial curve, poor fit] | –
O=C(Cn1cnc2c(nnn2Cc2ccc(Cl)cc2)c1=O)NCC1CCCO1 (centres undefined) | inconclusive: 18.5 µM [inhibitor, single point] | –
C/C(Cn1nnc([N+](=O)[O-])n1)=N\NC(=O)c1ccc(O)cc1 | inconclusive: 10.4 µM [inhibitor, single point] | –
Cc1cc(C)nc(NS(=O)(=O)c2ccc(NS(=O)(=O)c3ccsc3)cc2)n1 | – | inactive: 14.8%
Cc1ccsc1-c1nc(CN(C)C(C2CC2)C2CC2)c(C)o1 | inconclusive: 16.5 µM [inhibitor, single point] | –
O=C(C1CCN(S(=O)(=O)c2cccc3cccnc23)CC1)N1CC=C(c2ccccc2)CC1 | inconclusive: 9.28 µM [inhibitor, single point] | –
Cc1ccc(NCCC(=O)c2ccc(Cl)cc2)cc1 | – | inactive: 4.31%

Molecules from the list above that contain sulfur, in the order listed:
Compound | Potency | activity change, negative = inhibition
Oc1ccc(Cl)cc1CNc1nccs1 | inconclusive: 0.0037 µM [inhibitor, full curve, poor fit] | –
COCCn1c(COc2ccccc2)nnc1SCC(N)=O | inconclusive: 14.7 µM [inhibitor, partial curve, poor fit] | –
CC(C)CCNC(=O)CSc1nnc(-c2ccc(S(=O)(=O)N3CCCC3)cc2)n1C | inconclusive: 11.7 µM [inhibitor, single point] | –
O=C(CSc1nc(-c2ccc(F)cc2)cc(C(F)(F)F)n1)NCc1cccs1 | active: 3.29 µM | –
Cc1ccc(-c2csc3ncnc(-n4nnc5ccccc54)c23)cc1 | inconclusive: 18.5 µM [inhibitor, single point] | –
Cc1nnc(SCC(=O)NCc2ccccc2)s1 | inconclusive: 9.28 µM [inhibitor, single point] | –
CCOc1ccc(N(CC(=O)NCCOc2ccccc2OC)S(=O)(=O)c2ccccc2)cc1 | – | inactive: 0.187%
O=S(=O)(c1ccc(SCCOc2ccccc2Cl)nc1)N1CCCC1 | inconclusive: 9.28 µM [inhibitor, partial curve, poor fit] | –
CCCn1c(N)c(C(=O)CSc2nncs2)c(=O)[nH]c1=O | inconclusive: 10.4 µM [inhibitor, partial curve, poor fit] | –
COc1cc(NC(=O)CCS(=O)(=O)c2ccc3c(c2)n(C)c(=O)c(=O)n3C)cc(OC)c1 | inconclusive: 0.0033 µM [inhibitor, full curve, poor fit] | –
Cc1ccc2nc(CSc3nnc(Nc4ccccc4C)s3)cc(=O)n2c1 | inconclusive: 9.28 µM [inhibitor, partial curve, poor fit] | –
COc1cccc(OCC(=O)NC2CCS(=O)(=O)C2)c1 (centres undefined) | – | inactive: 75.6%
CS(=O)(=O)c1ccc(Cl)c(NC(=O)CCc2ccccc2)c1 | – | inactive: 78.5%
N#CCCN(Cc1ccncc1)C(=S)NC1CC2C=CC1C2 (centres undefined) | inconclusive: 4.15 µM [inhibitor, full curve, poor fit] | –
O=S(=O)(Nc1cccc(-c2ccc3nncn3n2)c1)c1ccccc1F | inconclusive: 18.5 µM [inhibitor, single point] | –
Cc1ccc(C(=O)N2CCN(c3ccc(NC(=S)NC(=O)Cc4ccccc4)cc3)CC2)cc1 | inconclusive: 9.28 µM [inhibitor, partial curve, poor fit] | –
Cc1cc(C)nc(NS(=O)(=O)c2ccc(NS(=O)(=O)c3ccsc3)cc2)n1 | – | inactive: 14.8%
Cc1ccsc1-c1nc(CN(C)C(C2CC2)C2CC2)c(C)o1 | inconclusive: 16.5 µM [inhibitor, single point] | –
O=C(C1CCN(S(=O)(=O)c2cccc3cccnc23)CC1)N1CC=C(c2ccccc2)CC1 | inconclusive: 9.28 µM [inhibitor, single point] | –

Continuation:

Compound | Potency | activity change, negative = inhibition
O=S(=O)(c1ccc(Cl)cc1)N1CCN(c2ccccn2)CC1 | inconclusive: 16.5 µM [inhibitor, single point] | –
CCOC(=O)CNC(=O)CSc1nc2cccnc2n1C1CCCCC1 | active: 9.28 µM | –
Cc1ccc(S(=O)(=O)N2CCOCC2)cc1C(=O)NC(=S)N1CC(C)OC(C)C1 (centres undefined) | inconclusive: 11.7 µM [inhibitor, single point] | –
Cc1ccc(O)c(C2=NCCNC(C(F)(F)F)=C2)c1 | inconclusive: 5.22 µM [inhibitor, partial curve, poor fit] | –
CCOc1ccc(C(=O)OC2CC3CCC(C2)N3C)cc1 (centres undefined) | inconclusive: 9.28 µM [inhibitor, single point] | –
CCN(CC)c1ccc(/C=N/NC(=O)Cc2cccs2)cc1 | inconclusive: 18.5 µM [inhibitor, single point] | –
C=CCn1c(SCc2cccc(OC)c2)nnc1-c1ccncc1 | inconclusive: 14.7 µM [inhibitor, single point] | –
Cc1cccc(-c2nnc(SCc3ccc(C#N)cc3)n2Cc2ccco2)c1 | inconclusive: 11.7 µM [inhibitor, single point] | –
CN(C)C=Nc1nonc1-c1ncn[nH]1 | inconclusive: 18.5 µM [inhibitor, partial curve, poor fit] | –
CCC(=O)N(C(=O)CC)N1CCN(c2ccncc2S(=O)(=O)N2CCCCC2)CC1 | inconclusive: 13.1 µM [inhibitor, single point] | –
COc1ccc(OC)c2c(C)cc(N3CCCCCC3)nc12 | inconclusive: 16.5 µM [inhibitor, single point] | –
CCCN(CC(=O)Nc1ccccc1C)C(=O)c1ccc(N2CCCC2=O)cc1 | inconclusive: 18.5 µM [inhibitor, single point] | –
CC(=O)Nc1ccc(S(=O)(=O)N(C)c2ccccc2)cc1 | inconclusive: 11.7 µM [inhibitor, partial curve, poor fit] | –
CC1CCN(C(=O)c2ccc(CS(=O)(=O)Cc3ccccc3)cc2)CC1 | inconclusive: 10.4 µM [inhibitor, partial curve] | –
O=C(c1ccc2c(c1)OCO2)N(CC1CCCO1)C1(C(=O)NC2CCCC2)CCCCC1 (centres undefined) | inconclusive: 18.5 µM [inhibitor, single point] | –
CCN(CC)CCn1c2c(c(SCC(=O)Nc3ccc4c(c3)OCO4)nc1=O)CCC2 | inconclusive: 16.5 µM [inhibitor, single point] | –
COc1cc(NC(=O)c2ccc(Cl)cc2)c(Cl)cc1NC(=O)c1cccnc1 | – | inactive: 22.3%
COc1cc2ccccc2cc1C(=O)Nc1ccncc1 | inconclusive: 11.7 µM [inhibitor, single point] | –
C=CCNC(=S)NNC(=O)C(CC(C)C)CC(C)O (centres undefined) | – | inactive: 16.5%
COc1cccc(NC(=O)C(=O)NCC(c2ccco2)N2CCc3ccccc3C2)c1 (centres undefined) | inconclusive: 11.7 µM [inhibitor, single point] | –
COc1ccccc1NS(=O)(=O)c1cccc(C(=O)N2CCN(Cc3ccc4c(c3)OCO4)CC2)c1 | inconclusive: 7.38 µM [inhibitor, partial curve, poor fit] | –
CCCCNC(=O)/C=C1\Sc2ccccc2NC1=O | inconclusive: 6.57 µM [inhibitor, single point] | –
O=C(NCCC1=CCCCC1)c1cccc(S(=O)(=O)N2CCCCC2)c1 | inconclusive: 11.7 µM [inhibitor, partial curve] | –

Reference: PubChem BioAssay AID504834 (National Center for Advancing Translational Sciences (NCATS), 2011)
